These are yes or no findings as the source states them, for the method shown. Some binding calls cover weakened binding; strength is not graded here. Sequences can lack the tags named with a protein.
What was measured:
[1] = biological target: T1, Saccharomyces cerevisiae Pan2 (scPan2), full length, of the recombinant scPan2–Pan3 complex (Saccharomyces cerevisiae) (UniProt P53010); experiment: co-purification of a co-expressed complex (StrepTactin affinity chromatography); Pan2–Pan3 complexes expressed in S. cerevisiae with a Strep-II affinity tag and purified on StrepTactin
T1 sequence: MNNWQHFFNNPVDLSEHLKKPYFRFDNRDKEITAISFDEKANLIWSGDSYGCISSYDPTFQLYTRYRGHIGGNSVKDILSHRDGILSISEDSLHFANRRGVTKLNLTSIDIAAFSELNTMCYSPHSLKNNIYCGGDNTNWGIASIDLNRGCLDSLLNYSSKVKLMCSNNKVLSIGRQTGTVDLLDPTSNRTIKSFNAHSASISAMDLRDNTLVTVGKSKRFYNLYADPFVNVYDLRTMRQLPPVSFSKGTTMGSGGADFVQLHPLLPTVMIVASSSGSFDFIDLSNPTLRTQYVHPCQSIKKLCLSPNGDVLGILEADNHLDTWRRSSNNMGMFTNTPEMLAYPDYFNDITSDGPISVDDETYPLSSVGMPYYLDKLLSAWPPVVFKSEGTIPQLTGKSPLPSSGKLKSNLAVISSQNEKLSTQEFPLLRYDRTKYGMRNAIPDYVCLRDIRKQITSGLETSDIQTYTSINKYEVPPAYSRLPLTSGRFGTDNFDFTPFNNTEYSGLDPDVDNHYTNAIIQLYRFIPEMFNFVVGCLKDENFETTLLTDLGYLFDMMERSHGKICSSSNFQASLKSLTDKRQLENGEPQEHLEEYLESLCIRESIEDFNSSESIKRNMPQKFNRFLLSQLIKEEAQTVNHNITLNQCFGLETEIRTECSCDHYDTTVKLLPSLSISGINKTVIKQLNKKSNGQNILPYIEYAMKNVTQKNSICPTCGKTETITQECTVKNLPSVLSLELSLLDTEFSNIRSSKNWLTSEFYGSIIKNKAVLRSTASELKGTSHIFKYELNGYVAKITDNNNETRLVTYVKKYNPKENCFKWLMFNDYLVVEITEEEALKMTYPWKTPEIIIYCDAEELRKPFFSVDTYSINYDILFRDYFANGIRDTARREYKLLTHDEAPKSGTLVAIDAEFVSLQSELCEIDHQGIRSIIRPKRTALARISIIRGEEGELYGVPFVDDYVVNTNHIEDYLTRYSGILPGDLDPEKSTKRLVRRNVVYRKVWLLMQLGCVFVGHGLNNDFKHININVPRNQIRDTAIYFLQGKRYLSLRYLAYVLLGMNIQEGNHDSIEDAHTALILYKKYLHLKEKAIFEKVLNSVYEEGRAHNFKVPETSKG

[2] = biological target: T2, scPan2 E912A (active site mutant) (Saccharomyces cerevisiae) (UniProt P53010); experiment: as above
T2 sequence: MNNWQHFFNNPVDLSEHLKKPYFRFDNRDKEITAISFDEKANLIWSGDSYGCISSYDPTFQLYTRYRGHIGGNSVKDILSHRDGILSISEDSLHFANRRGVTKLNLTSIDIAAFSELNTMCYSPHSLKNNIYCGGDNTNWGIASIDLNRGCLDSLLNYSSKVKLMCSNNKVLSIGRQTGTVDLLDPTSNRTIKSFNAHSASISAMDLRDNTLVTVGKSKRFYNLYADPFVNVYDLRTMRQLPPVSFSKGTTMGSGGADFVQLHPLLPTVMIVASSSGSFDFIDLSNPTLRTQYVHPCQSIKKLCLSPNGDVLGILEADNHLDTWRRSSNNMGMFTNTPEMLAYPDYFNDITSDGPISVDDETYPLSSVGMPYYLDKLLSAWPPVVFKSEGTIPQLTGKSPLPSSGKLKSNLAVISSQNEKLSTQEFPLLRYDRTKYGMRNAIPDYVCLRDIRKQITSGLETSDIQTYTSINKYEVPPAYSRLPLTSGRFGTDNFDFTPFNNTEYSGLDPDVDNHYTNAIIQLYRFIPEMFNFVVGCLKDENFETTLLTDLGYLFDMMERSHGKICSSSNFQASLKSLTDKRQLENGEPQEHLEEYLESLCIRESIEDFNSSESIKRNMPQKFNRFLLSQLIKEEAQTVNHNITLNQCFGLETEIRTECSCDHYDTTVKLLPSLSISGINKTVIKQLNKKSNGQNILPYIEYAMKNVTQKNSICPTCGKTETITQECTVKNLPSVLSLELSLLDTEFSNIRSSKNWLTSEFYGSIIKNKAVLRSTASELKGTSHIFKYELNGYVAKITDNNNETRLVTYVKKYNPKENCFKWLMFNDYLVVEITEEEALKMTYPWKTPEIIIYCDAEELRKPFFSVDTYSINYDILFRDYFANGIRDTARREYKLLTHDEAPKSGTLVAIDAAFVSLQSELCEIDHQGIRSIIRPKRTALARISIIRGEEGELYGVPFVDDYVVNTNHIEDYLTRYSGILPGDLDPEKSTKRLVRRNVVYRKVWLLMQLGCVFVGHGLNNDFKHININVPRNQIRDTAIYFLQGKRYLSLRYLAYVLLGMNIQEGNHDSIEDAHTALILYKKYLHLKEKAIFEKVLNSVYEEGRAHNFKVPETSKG

B1: Saccharomyces cerevisiae Pan3 (scPan3), full length, of the recombinant scPan2–Pan3 complex (natural protein, UniProt P36102 1-679, looked up)
chain: MDKINPDWAKDIPCRNITIYGYCKKEKEGCPFKHSDNTTATTINDVPPPIDVGEATTPTMTSVPKFNAKVSASFTPMTVGSDSLTTVTNTTSAATNATGNIAMAATSATASTVNPMINPIVNSSLVNNNNNNSNISISIPTTASSSNYDPFNAPIFTPSSTSSIHTNANAHSFPFPSIANSGGININATDDNSNNMSMANNVPPPMQPPPIESSNLKYPRIYPPPHSLLQYHLYAPEQPSSLKSLLKPNERSADQLFIPNNIREDLTKKNLSILQVFPSSGKVIPSIVQDYFNLVPLNFNNNDFLNKTTLFKVFSNYDGKAYVLKRLPNIDKSMNPNKISKIYQIWSKINCTNLIKFRDIFQTTKFGDLSICLVFDYYPNSLSLYDYHFVNFPKFPITNNYLWIYLVQLTNVINSIHSQNLSIGNTLNWRKVLITGDPGRIKLSHCNFMDLLFNDDTDTVVSSGGSTIEGQQQLDYKYLGELLFNLSINIENSNNNTAPKEYRLEEITPQSIDDMRQIDDKFKDVLKYLISDNGDSKKSIHDLTSHFYDKMFMVLESSQTYTEYMESVLSRELENGRLFRLVNKLNCIFGRIESRIDINWSESGTKFPIILFYDYVFHQVDSNGKPIMDLTHVLRCLNKLDAGIQEKLMLVTPDELNCIIISYKELKDLIESTFRSITQ
notes: Pan3, Saccharomyces cerevisiae; Two copies stand in the scPan2–Pan3 heterotrimer by nanoESI-MS
B1 was tested, and the binding [1] was “binds” and the binding [2] was “binds”.

Source: article PMC4158885 (The EMBO Journal, 2014)
